Patent US20100130620A1, “NOVEL USE OF HYDROXYTYROSOL AND OLIVE EXTRACTS/CONCENTRATES CONTAINING IT” (priority 2007, published 2010)
For at least one compound, name, drawing or mass did not settle the structure.

Experiments:
Type in all cases: cell-based, human
[1] = tested on: ARPE-19 cells; test: Assay for GSH levels; conditions: FIG. 7
[2] = tested on: ARPE-19 cells; test: Total antioxidant power; conditions: FIG. 6B
[3] = tested on: Nrf2; test: Total Nrf2 levels by Western analysis
[4] = tested on: ARPE-19 cells; test: JC-1 assay for mitochondrial membrane potential
Method: The human ARPE-19 cells (a human retinal pigment epithelial cell-line) were maintained in DMEM-F12 medium (Dulbecco's modified Eagle's medium) supplemented with 10% fetal bovine serum, 0.348% sodium bicarbonate, 2 mM L-glutamine, 100 U/mL penicillin and 100 μg/ml streptomycin. Cell cultures were maintained at 37° C. in a humidified atmosphere of 95% air and 5% CO2. The medium was changed every 3 to 4 days. ARPE-19 cells were used within 10 generations.
All experiments were performed with an 80% confluence monolayer grown in 96-well plates or 6 well plates. Hydroxytyrosol (HTS) was dissolved in DMSO (dimethyl sulfoxide). Acrolein was dissolved in PBS (phosphate buffer salt) each time immediately before an experiment. For the acute toxicity study, cells were exposed to acrolein for 24 hours. […]
Mitochondrial potential change (ΔΨ) was assessed in live APRE-19 cells using the lipophilic cationic probe 5,5′,6,6′-tetrachloro-1,1′,3,3′-tetraethylbenzimidazol-carbocyanine iodine (JC-1). For quantitative fluorescence measurement, cells were rinsed once after JC-1 staining and scanned with a multi-label counter (Wallac 1420; PerkinElmer Life Sciences, Wellesley, Mass.) at 485 nm excitation and 535 nm and 590 nm emission, to measure green and red JC-1 fluorescence respectively. […]

[5] = tested on: succinate-CoQ oxidoreductase (complex II); test: Mitochondrial complex II activity; conditions: pretreatment 100 μM HTS, acrolein 75 μM 24 h, FIG. 10B
[6] = tested on: CoQ-cytochrome c reductase (complex III); test: Mitochondrial complex III activity; conditions: pretreatment 100 μM HTS, acrolein 75 μM 24 h, FIG. 10C
[7] = tested on: ARPE-19 cells; test: Intracellular calcium assay
[8] = tested on: NADH-CoQ oxidoreductase (Complex I); test: Mitochondrial complex I activity; conditions: pretreatment 100 μM HTS, acrolein 75 μM 24 h, FIG. 10A

OCCc1ccc(O)c(O)c1 [HTS, 3,4-dihydroxyphenyl ethanol]
protection of GSH level against acrolein-induced decrease ([1]; HTS 100 μM 48 hours, acrolein 75 μM 24 hours): full protection
GSH level without acrolein ([1]; HTS pretreatment 48 hours): trend in increasing GSH level
intracellular total antioxidant power without acrolein ([2]; HTS 100 μM without acrolein): elevated the intracellular total antioxidant power
acrolein-induced decrease in intracellular total antioxidant power ([2]; pretreatment 100 μM HTS, 75 μM acrolein): prevented the cells from acrolein-induced decrease
Nrf2 protein level ([3]; APRE19 cells, summary statement): increases Nrf2 protein level
acrolein-induced decrease in total Nrf2 expression ([3]; HTS 100 uM 48 h, acrolein 75 μM 24 h, FIG. 9): significantly prevented
effect of 7-day long pretreatment on protection of mitochondrial membrane potential ([4]; 7-day pretreatment versus 48 h): enhanced the protective effect
protection of acute acrolein-induced decrease in mitochondrial membrane potential ([4]; HTS pretreatment, 75 μM acrolein, FIGS. 2, 4): significantly protected
protection of mitochondrial complex II activity against acrolein [5]: significant protections
protection of mitochondrial complex III activity against acrolein [6]: significant protections
intracellular Ca2+ level without acrolein ([7]; HTS 100 μM without acrolein): did not significantly change
acrolein-induced increase in intracellular Ca2+ level ([7]; pretreatment 100 μM HTS before 75 μM acrolein, FIG. 6C): significantly inhibited the increase in Ca^2+
protection of mitochondrial complex I activity against acrolein [8]: significant protections
